PubChem BioAssay AID1508597 | Cure First | 2020
Here is one part, drawn at random, of about 2,100 deposited reagents. 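Calls flag viability under 80% in either arm, not effects specific to rucaparib; the reference for percent is not stated.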 Some reagents were tested in more than one well and are listed for each. Not stated in the record: the 100% reference.

Test: 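Genes whose silencing sensitises or protects ovarian cancer cells against rucaparib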 (primary screen)
System: human ovarian carcinoma lines grown from tumours: OCI-P5x (papillary serous) and OCI-C5x (clear cell)
Reagent: siRNA pool against human genes, 1.25 pmol siRNA per well
Timing: 72 h or 96 h, depending on the cell culture
Challenge: rucaparib 20 µM (about IC30) or vehicle, present until read-out
Read-out: 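Luminescent ATP-based viability assay read 72 or 96 h after transfection, depending on culture, given as normalised percent viability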
Reading the numbers: viability, normalised: higher = more viable cells remaining
Rule for the call: 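a well counts as a hit if its normalised viability is under 80 percent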
Calls: active = viability under 80%; inactive = viability 80% or more

EPHA4 (EPH receptor A4) [SID405527381], rucaparib or vehicle Rucaparib, cell line OCI-C5x (clear cell), technical replicate 1: viability, normalised (%) = 52.1; Outcome = active
EPHA4 (EPH receptor A4) [SID405527381], rucaparib or vehicle Rucaparib, cell line OCI-C5x (clear cell), technical replicate 2: viability, normalised (%) = 52.6; Outcome = active
EPHA4 (EPH receptor A4) [SID405527381], rucaparib or vehicle Rucaparib, cell line OCI-C5x (clear cell), technical replicate 3: viability, normalised (%) = 54.8; Outcome = active
EPHA4 (EPH receptor A4) [SID405527381], rucaparib or vehicle Rucaparib, cell line OCI-P5x (serous), technical replicate 1: viability, normalised (%) = 112; Outcome = inactive
EPHA4 (EPH receptor A4) [SID405527381], rucaparib or vehicle Rucaparib, cell line OCI-P5x (serous), technical replicate 2: viability, normalised (%) = 117; Outcome = inactive
EPHA4 (EPH receptor A4) [SID405527381], rucaparib or vehicle Rucaparib, cell line OCI-P5x (serous), technical replicate 3: viability, normalised (%) = 102; Outcome = inactive
EPHA4 (EPH receptor A4) [SID405527381], rucaparib or vehicle Vehicle, cell line OCI-C5x (clear cell), technical replicate 1: viability, normalised (%) = 58.5; Outcome = active
EPHA4 (EPH receptor A4) [SID405527381], rucaparib or vehicle Vehicle, cell line OCI-C5x (clear cell), technical replicate 2: viability, normalised (%) = 67.2; Outcome = active
EPHA4 (EPH receptor A4) [SID405527381], rucaparib or vehicle Vehicle, cell line OCI-C5x (clear cell), technical replicate 3: viability, normalised (%) = 74.8; Outcome = active
EPHA4 (EPH receptor A4) [SID405527381], rucaparib or vehicle Vehicle, cell line OCI-P5x (serous), technical replicate 1: viability, normalised (%) = 85.7; Outcome = inactive
EPHA4 (EPH receptor A4) [SID405527381], rucaparib or vehicle Vehicle, cell line OCI-P5x (serous), technical replicate 2: viability, normalised (%) = 92.3; Outcome = inactive
EPHA4 (EPH receptor A4) [SID405527381], rucaparib or vehicle Vehicle, cell line OCI-P5x (serous), technical replicate 3: viability, normalised (%) = 91.4; Outcome = inactive
DDX17 (DEAD-box helicase 17) [SID405528172], rucaparib or vehicle Rucaparib, cell line OCI-C5x (clear cell), technical replicate 1: viability, normalised (%) = 73; Outcome = active
DDX17 (DEAD-box helicase 17) [SID405528172], rucaparib or vehicle Rucaparib, cell line OCI-C5x (clear cell), technical replicate 1: viability, normalised (%) = 70.1; Outcome = active
DDX17 (DEAD-box helicase 17) [SID405528172], rucaparib or vehicle Rucaparib, cell line OCI-C5x (clear cell), technical replicate 2: viability, normalised (%) = 44.4; Outcome = active
DDX17 (DEAD-box helicase 17) [SID405528172], rucaparib or vehicle Rucaparib, cell line OCI-C5x (clear cell), technical replicate 2: viability, normalised (%) = 52.7; Outcome = active
DDX17 (DEAD-box helicase 17) [SID405528172], rucaparib or vehicle Rucaparib, cell line OCI-C5x (clear cell), technical replicate 3: viability, normalised (%) = 46.6; Outcome = active
DDX17 (DEAD-box helicase 17) [SID405528172], rucaparib or vehicle Rucaparib, cell line OCI-C5x (clear cell), technical replicate 3: viability, normalised (%) = 62.6; Outcome = active
DDX17 (DEAD-box helicase 17) [SID405528172], rucaparib or vehicle Rucaparib, cell line OCI-P5x (serous), technical replicate 1: viability, normalised (%) = 93.1; Outcome = inactive
DDX17 (DEAD-box helicase 17) [SID405528172], rucaparib or vehicle Rucaparib, cell line OCI-P5x (serous), technical replicate 1: viability, normalised (%) = 60.8; Outcome = active
DDX17 (DEAD-box helicase 17) [SID405528172], rucaparib or vehicle Rucaparib, cell line OCI-P5x (serous), technical replicate 2: viability, normalised (%) = 87.1; Outcome = inactive
DDX17 (DEAD-box helicase 17) [SID405528172], rucaparib or vehicle Rucaparib, cell line OCI-P5x (serous), technical replicate 2: viability, normalised (%) = 93.7; Outcome = inactive
DDX17 (DEAD-box helicase 17) [SID405528172], rucaparib or vehicle Rucaparib, cell line OCI-P5x (serous), technical replicate 3: viability, normalised (%) = 81.4; Outcome = inactive
DDX17 (DEAD-box helicase 17) [SID405528172], rucaparib or vehicle Rucaparib, cell line OCI-P5x (serous), technical replicate 3: viability, normalised (%) = 103; Outcome = inactive
DDX17 (DEAD-box helicase 17) [SID405528172], rucaparib or vehicle Vehicle, cell line OCI-C5x (clear cell), technical replicate 1: viability, normalised (%) = 56.3; Outcome = active
DDX17 (DEAD-box helicase 17) [SID405528172], rucaparib or vehicle Vehicle, cell line OCI-C5x (clear cell), technical replicate 1: viability, normalised (%) = 38.3; Outcome = active
DDX17 (DEAD-box helicase 17) [SID405528172], rucaparib or vehicle Vehicle, cell line OCI-C5x (clear cell), technical replicate 2: viability, normalised (%) = 50.7; Outcome = active
DDX17 (DEAD-box helicase 17) [SID405528172], rucaparib or vehicle Vehicle, cell line OCI-C5x (clear cell), technical replicate 2: viability, normalised (%) = 31.4; Outcome = active
DDX17 (DEAD-box helicase 17) [SID405528172], rucaparib or vehicle Vehicle, cell line OCI-C5x (clear cell), technical replicate 3: viability, normalised (%) = 66.7; Outcome = active
DDX17 (DEAD-box helicase 17) [SID405528172], rucaparib or vehicle Vehicle, cell line OCI-C5x (clear cell), technical replicate 3: viability, normalised (%) = 53.5; Outcome = active
DDX17 (DEAD-box helicase 17) [SID405528172], rucaparib or vehicle Vehicle, cell line OCI-P5x (serous), technical replicate 1: viability, normalised (%) = 94.6; Outcome = inactive
DDX17 (DEAD-box helicase 17) [SID405528172], rucaparib or vehicle Vehicle, cell line OCI-P5x (serous), technical replicate 1: viability, normalised (%) = 78.3; Outcome = active
DDX17 (DEAD-box helicase 17) [SID405528172], rucaparib or vehicle Vehicle, cell line OCI-P5x (serous), technical replicate 2: viability, normalised (%) = 89.9; Outcome = inactive
DDX17 (DEAD-box helicase 17) [SID405528172], rucaparib or vehicle Vehicle, cell line OCI-P5x (serous), technical replicate 2: viability, normalised (%) = 70.8; Outcome = active
DDX17 (DEAD-box helicase 17) [SID405528172], rucaparib or vehicle Vehicle, cell line OCI-P5x (serous), technical replicate 3: viability, normalised (%) = 83.4; Outcome = inactive
DDX17 (DEAD-box helicase 17) [SID405528172], rucaparib or vehicle Vehicle, cell line OCI-P5x (serous), technical replicate 3: viability, normalised (%) = 95.9; Outcome = inactive

3 consecutive reagents from above, quoted:
DDX17 (DEAD-box helicase 17) [SID405528172], rucaparib or vehicle Rucaparib, cell line OCI-C5x (clear cell), technical replicate 2: viability, normalised (%) = 52.7; Outcome = active
DDX17 (DEAD-box helicase 17) [SID405528172], rucaparib or vehicle Rucaparib, cell line OCI-C5x (clear cell), technical replicate 3: viability, normalised (%) = 46.6; Outcome = active
DDX17 (DEAD-box helicase 17) [SID405528172], rucaparib or vehicle Rucaparib, cell line OCI-C5x (clear cell), technical replicate 3: viability, normalised (%) = 62.6; Outcome = active
